Article PMC6008442
No constants are given. Whether binding was seen depends on the method and setting. In cells and extracts the contact can be indirect. Some entries that bind do so weakly or less than the wild type.

Amino acid sequences for entries named in this document (tags omitted). Residues count along the entry.
UniProt Q60751, residues 31-1373: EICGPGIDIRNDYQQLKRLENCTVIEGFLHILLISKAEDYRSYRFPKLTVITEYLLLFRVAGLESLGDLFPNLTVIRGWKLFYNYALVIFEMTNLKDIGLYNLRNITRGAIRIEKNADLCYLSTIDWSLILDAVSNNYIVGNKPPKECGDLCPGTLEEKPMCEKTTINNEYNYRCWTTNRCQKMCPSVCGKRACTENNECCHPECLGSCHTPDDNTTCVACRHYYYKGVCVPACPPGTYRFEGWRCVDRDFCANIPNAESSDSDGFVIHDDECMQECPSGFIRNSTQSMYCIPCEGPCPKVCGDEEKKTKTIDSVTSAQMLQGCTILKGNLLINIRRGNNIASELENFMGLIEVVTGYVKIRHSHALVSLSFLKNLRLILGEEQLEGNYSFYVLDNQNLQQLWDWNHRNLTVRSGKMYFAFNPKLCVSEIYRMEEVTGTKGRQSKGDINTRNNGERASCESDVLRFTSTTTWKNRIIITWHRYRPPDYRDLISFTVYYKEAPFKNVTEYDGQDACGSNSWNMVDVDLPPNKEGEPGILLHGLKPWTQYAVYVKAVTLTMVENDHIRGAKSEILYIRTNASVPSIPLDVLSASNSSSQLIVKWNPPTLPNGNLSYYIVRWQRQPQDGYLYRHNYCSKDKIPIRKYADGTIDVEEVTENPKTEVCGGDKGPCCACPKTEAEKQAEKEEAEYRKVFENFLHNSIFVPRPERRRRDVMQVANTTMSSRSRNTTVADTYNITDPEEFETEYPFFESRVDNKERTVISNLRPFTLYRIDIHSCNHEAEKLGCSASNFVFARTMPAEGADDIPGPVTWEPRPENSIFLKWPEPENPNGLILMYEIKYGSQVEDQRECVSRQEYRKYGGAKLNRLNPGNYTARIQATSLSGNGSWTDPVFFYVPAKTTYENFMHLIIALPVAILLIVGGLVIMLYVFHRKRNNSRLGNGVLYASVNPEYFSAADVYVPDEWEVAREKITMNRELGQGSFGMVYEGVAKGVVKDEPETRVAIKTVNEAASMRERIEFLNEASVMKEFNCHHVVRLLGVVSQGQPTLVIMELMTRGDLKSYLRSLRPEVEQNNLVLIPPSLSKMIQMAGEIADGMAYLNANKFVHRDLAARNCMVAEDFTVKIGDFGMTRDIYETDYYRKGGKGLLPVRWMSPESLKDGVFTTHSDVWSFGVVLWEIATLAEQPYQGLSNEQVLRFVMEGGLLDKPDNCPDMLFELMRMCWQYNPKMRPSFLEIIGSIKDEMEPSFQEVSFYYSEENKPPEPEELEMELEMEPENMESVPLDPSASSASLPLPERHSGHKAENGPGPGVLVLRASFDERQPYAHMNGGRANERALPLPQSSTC
UniProt P15208, residues 28-1372: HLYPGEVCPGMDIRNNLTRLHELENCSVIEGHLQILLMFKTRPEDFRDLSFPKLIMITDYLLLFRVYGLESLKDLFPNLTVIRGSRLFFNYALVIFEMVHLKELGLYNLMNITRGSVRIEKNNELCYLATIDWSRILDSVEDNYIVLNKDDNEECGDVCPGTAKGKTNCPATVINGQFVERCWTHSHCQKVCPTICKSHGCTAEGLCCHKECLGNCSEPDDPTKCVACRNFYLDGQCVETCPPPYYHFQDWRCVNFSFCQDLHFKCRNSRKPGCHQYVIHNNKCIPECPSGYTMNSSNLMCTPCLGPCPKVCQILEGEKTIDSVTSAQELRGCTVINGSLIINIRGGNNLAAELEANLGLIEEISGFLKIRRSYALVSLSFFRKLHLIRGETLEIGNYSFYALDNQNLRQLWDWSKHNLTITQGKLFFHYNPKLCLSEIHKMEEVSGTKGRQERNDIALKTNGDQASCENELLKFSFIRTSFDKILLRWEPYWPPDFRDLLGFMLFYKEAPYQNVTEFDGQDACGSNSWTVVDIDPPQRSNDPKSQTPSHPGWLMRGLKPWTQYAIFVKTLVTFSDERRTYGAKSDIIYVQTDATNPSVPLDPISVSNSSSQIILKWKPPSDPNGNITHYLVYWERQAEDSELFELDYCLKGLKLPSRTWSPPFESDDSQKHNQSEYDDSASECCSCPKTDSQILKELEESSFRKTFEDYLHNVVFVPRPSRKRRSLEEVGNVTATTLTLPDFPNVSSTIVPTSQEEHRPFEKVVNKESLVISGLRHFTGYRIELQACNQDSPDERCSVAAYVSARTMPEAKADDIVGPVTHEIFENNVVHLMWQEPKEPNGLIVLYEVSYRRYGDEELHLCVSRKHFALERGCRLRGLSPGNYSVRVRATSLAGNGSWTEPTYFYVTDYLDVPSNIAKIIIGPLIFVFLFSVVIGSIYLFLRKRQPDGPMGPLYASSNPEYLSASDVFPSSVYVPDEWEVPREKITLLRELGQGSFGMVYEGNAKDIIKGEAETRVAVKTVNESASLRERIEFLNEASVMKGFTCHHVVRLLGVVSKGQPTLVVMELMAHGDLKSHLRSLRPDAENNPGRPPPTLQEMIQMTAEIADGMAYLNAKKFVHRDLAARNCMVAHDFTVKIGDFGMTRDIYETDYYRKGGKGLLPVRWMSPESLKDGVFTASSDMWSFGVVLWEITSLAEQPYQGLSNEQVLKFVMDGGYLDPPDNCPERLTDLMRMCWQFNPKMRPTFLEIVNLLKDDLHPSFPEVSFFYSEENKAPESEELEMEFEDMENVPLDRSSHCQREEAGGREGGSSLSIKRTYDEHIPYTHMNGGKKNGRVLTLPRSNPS

Molecular target: IGF-1 receptor (IGF-1R), endogenous in NIH-3T3 cells (mouse (endogenous in NIH-3T3)) (UniProt Q60751)
Test: co-IP; IGF-1R immunoprecipitated (anti-IGF-1R #9750, Catch and Release kit) from 250 µg NIH-3T3 protein in non-denaturing buffer; blotted for InsR pTyr1334 and InsRβ; cells treated with vehicle or L2-Cmu (100 µg/mL), then media or IGF-1 (5 nM) for 2 min

“insulin receptor (InsR), endogenous in NIH-3T3 cells (from UniProt P15208 28-1372)” was tested, and the binding was “binds”.
